No constants are given. Whether binding was seen depends on the method and setting. Binding seen in cells or lysates may run through a third protein.

In test [1] the target is YAP (mouse (endogenous in mouse ISCs)), P46938. The test is described as follows: co-IP. The note with it: remark: other sources report otherwise.
Test [2] has as its target YAP (pCMV6-YAP, mouse) (mouse), P46938. The test is described as follows: co-IP. The note with it: remark: other sources report otherwise.

B1: 14-3-3 gamma, P61982 1-247 (protein)
chain: MVDREQLVQKARLAEQAERYDDMAAAMKNVTELNEPLSNEERNLLSVAYKNVVGARRSSWRVISSIEQKTSADGNEKKIEMVRAYREKIEKELEAVCQDVLSLLDNYLIKNCSETQYESKVFYLKMKGDYYRYLAEVATGEKRATVVESSEKAYSEAHEISKEHMQPTHPIRLGLALNYSVFYYEIQNAPEQACHLAKTAFDDAIAELDTLNEDSYKDSTLIMQLLRDNLTLWTSDQQDDDGGEGNN
Turning to B1, the binding result in test [1] is “no binding”.

B2: 14-3-3 gamma (pCMV6-14-3-3 gamma, mouse), P61982 1-247 (protein)
chain: MVDREQLVQKARLAEQAERYDDMAAAMKNVTELNEPLSNEERNLLSVAYKNVVGARRSSWRVISSIEQKTSADGNEKKIEMVRAYREKIEKELEAVCQDVLSLLDNYLIKNCSETQYESKVFYLKMKGDYYRYLAEVATGEKRATVVESSEKAYSEAHEISKEHMQPTHPIRLGLALNYSVFYYEIQNAPEQACHLAKTAFDDAIAELDTLNEDSYKDSTLIMQLLRDNLTLWTSDQQDDDGGEGNN
Take B2: in test [2], the binding entry is “no binding”.

Values taken from article doi:10.1101/2022.10.30.514401.
